According to PMC4177084 (Journal of Thyroid Research, 2014):

What was measured:
Assay in all cases: Antiproliferation assay (WST-8)
Format in all cases: cell-based
FTC-236 cells = settings: Homo sapiens, 72 h; FTC-236 (DTC), antiproliferative, 3 days
Nthy-ori 3-1 cells = settings: Homo sapiens, 72 h; Nthy-ori 3-1 (normal thyroid), antiproliferative, 3 days
K1 cells = settings: Homo sapiens, 72 h; K1 (DTC), antiproliferative, 3 days
RO82-W-1 cells = settings: Homo sapiens, 72 h; RO82-W-1 (DTC), antiproliferative, 3 days
FTC-133 cells = settings: Homo sapiens, 72 h; FTC-133 (DTC), antiproliferative, 3 days
FTC-238 cells = settings: Homo sapiens, 72 h; FTC-238 (DTC), antiproliferative, 3 days

Q: How did the IC50 (FTC-236 cells) turn out when Cc1ccc(NC(=O)c2ccc(CN3CCN(C)CC3)cc2)cc1Nc1nccc(-c2cccnc2)n1 [Glivec, imatinib] was run?
A: Its IC50 is over 30 µM.

Q: What about the IC50 (Nthy-ori 3-1 cells) of the same compound?
A: The IC50 was 20 µM.

Q: What about the IC50 (K1 cells) of the same compound?
A: The IC50 was 21 µM.

Q: And the IC50 (RO82-W-1 cells)?
A: The IC50 was 21 µM.

Q: What about the IC50 (FTC-133 cells) of the same compound?
A: Its IC50 is 23 µM.

Q: And the IC50 (FTC-238 cells)?
A: Its IC50 is 24 µM.
